Test results from patent US10266568B2, “Cyclic citrullinated peptide, rheumatoid arthritis diagnosis composition including the same, rheumatoid arthritis diagnosis method using the peptide or the composition, and method of screening diagnostic marker for rheumatoid arthritis” (KOREA INSTITUTE OF SCIENCE AND TECHNOLOGY, priority 2015, dated 2019).

Test system: autoimmune antibodies (anti-CCP antibody) in serum samples
Test: Sensitivity, specificity, AUC, PPR and NPR from ROC curves of the ELISA results; McNemer test between assays
Set-up: species or system human; AUC: unit not given beside the values
Details: for AUC: ROC curve
Protocol: A ROC curve as a plot of the relation between sensitivity and specificity in a specific diagnostic test may represent the diagnostic accuracy of a specific diagnostic model. The ROC may be a graph generated by plotting sensitivity of all possible cut-off points for a specific diagnostic model on Y-axis against 1-specificity on X-axis. The specific diagnostic model may be a diagnostic model for rheumatoid arthritis in which a specific level of anti-CCP antibody is determined as a cut-off level for positivity with disease (abnormal) and/or negativity without disease (normal patients). The larger the area under the ROC curve (AUC), the higher the accuracy of the determined diagnostic model. With the assumption that a total area of the ROC curve is 1, a diagnostic model may be determined as having high accuracy when the AUC is 0.5 or greater, 0.6 or greater, 0.7 or greater, 0.8 or greater, or 0.9 or greater. A diagnostic model may be determined as a higher accuracy when it is closer to the upper left corner of the ROC.
The term “sensitivity” may refer to the probability that an individual with the disease will test positive in a specific diagnostic model.
The term “specificity” may refer to the probability that a disease-free individual will test negative in a specific diagnostic model.
FIGS. 2A and 2B are graphs of sensitivity and specificity, respectively, of the peptides treated in the samples of various types of arthritis patients, calculated based on the ROC curves plotted using the results of Table 3. […] Therefore, it was identified that the C-terminal domain of amino acid sequence of CCP may play an important role in the binding of autoimmune antibodies.
FIGS. 4A, 4B, and 4C show ROC curves of CCP, and CCP10P and CCP11A as modified CCPs including substituted amino acid, respectively, in RA patient samples with respect to normal patient samples. FIGS. 4D, 4E, and 4F show ROC curves of CCP, and CCP10P and CCP11A, respectively, in RA patient samples with respect to OA patient samples. AUCs, positive prediction rates (PPR, %), and negative prediction rates (NPR, %) obtained from the ROC curves of FIGS. 4A to 4F are shown in Table 5.
The statistical significances were calculated using the McNemer test. The McNemer test is a test on a 2×2 table to calculate a difference between paired two tests and a statistical significance level. […] Referring to FIG. 5B, a p-value between the results of the two assays with CCP and CCP10P in the RA patient samples with respect to OA patient samples as control group was about 0.004, and a difference therebetween was about 37.78%. A p-value between the results of the two assays with CCP and CCP11A in the RA patient samples with respect to OA patient samples was about 0.04, and a difference therebetween was about 26.67%.

[1] = RA patient samples, OA patient samples as control group
[2] = RA patient samples, control group Normal
[3] = RA patient samples, control group OA
[4] = with respect to the RA, normal control
[5] = OA patient samples with respect to normal
[6] = SLE patient samples with respect to normal

With “CCP11A: HCHQESTXGRARGCG; CCP with 11th amino acid serine substituted by alanine” the “Difference between the results of the assay with CCP and this peptide (McNemer test)” value (“Difference between the results” below) [1] was “about 26.67%”, the “PPR (positive prediction rate)” value [2] was 86.7% and the Sensitivity [2] was 86.7%. The “PPR (positive prediction rate)” value [3] was 63.3%, the Sensitivity [3] was 63.3% and the “AUC larger than that of CCP by” value (RA patients with respect to OA patient samples) was “about 0.0797”. The “AUC larger than that of CCP by” value (RA patients with respect to normal patient samples) was “about 0.0038” and the “Specificity higher than CCP by” value [4] was “about 11.5%”.

With “CCPPAP: HCHQESTXGPAPGCG; CCP with 10th, 11th, 12th amino acids substituted by proline, alanine, proline” the Specificity [2] was “about 100%”.

In the case of “RF: rheumatoid factor peptide EGLHNHY (listed as Homo sapiens) [reference compound]”, the Sensitivity [2] is reported as “lower sensitivity” and the Specificity [2] is reported as “lower specificity than CCP”.

With “CCP10P: HCHQESTXGPSRGCG; CCP with 10th amino acid arginine substituted by proline” the “Difference between the results” value [1] was “about 37.78%”, the “NPR (negative prediction rate)” value [2] was 76% and the “PPR (positive prediction rate)” value [2] was 83.3%. For the same substance, the Sensitivity [2] was 83.3%, the “NPR (negative prediction rate)” value [3] was 93.3% and the “PPR (positive prediction rate)” value [3] was 30%. For the same substance, the Sensitivity [3] was 30.0%, the Specificity [3] was 93.3% and the “Difference between the results” value (RA patient samples, normal patient samples as control group) was 0.0%. For the same substance, the AUC [2] was 0.8370, the AUC [3] was 0.5030 and the “Specificity lower than CCP by” value [4] was “about 11.6%”.

“ZZH19: ZZHSHQESTXGRSRGSGZZ; aminocaproic acid (Z) added to N- and C-terminals of HSH15” was tested, and the Specificity [2] was “about 84.6%”.

For “ZZH17: ZZHSHQESTXGRSRGSG; aminocaproic acid (Z) added to N-terminal of HSH15”, the Specificity [2] was “about 80.8%”.

For “CCP: cyclic citrullinated peptide HCHQESTXGRSRGCG, X citrulline [reference compound]”, the Sensitivity [5] was “about 93.3%”, the Specificity [5] was “about 88.5%” and the “NPR (negative prediction rate)” value [2] was 88%. For the same substance, the “PPR (positive prediction rate)” value [2] was 93.3%, the “NPR (negative prediction rate)” value [3] was 60% and the “PPR (positive prediction rate)” value [3] was 70%. The Sensitivity [3] was 70.0%, the Specificity [3] was 60.0% and the AUC [2] was 0.9718. For the same substance, the Sensitivity [6] was “about 100%” and the Specificity [6] was “about 84.6%”.

In the case of “CCP12P: HCHQESTXGRSPGCG; CCP with 12th amino acid substituted by proline”, the Specificity [2] is reported as “about 100%”.

With “HSH17: HSHQESTXGRSRGSGZZ; aminocaproic acid (Z) added to C-terminal of HSH15” the Sensitivity [5] was “about 100%”, the Specificity [5] was ~73.1% and the Sensitivity [2] was “about 100%”. The Specificity [2] was “about 69.2%”, the Sensitivity [6] was “about 100%” and the Specificity [6] was “about 69.2%”.
